The supplement of paper PMC4683952
Structures can show the parent of a compound that is named as a salt. Screen size: about 1,200 compounds; about 50 (4%) showed activity. No stated cut-off is given here; in the data, all actives reach 1.3 or more but so do some inactives. This is one part of the list.

What follows are molecules tested on Lgr5 (MarsCy1-Lgr5-EGFP, U2OS) (assay: cell-surface Lgr5 expression (SCi1 fluorescence, background-subtracted) relative to WT DMSO (fold of DMSO control); higher = more Lgr5 at the plasma membrane, active = hit call of the paper). Details: U2OS MarsCy1-Lgr5-EGFP stable; treatment time: overnight; 16 µM; library: Johns Hopkins Clinical Compound Library.

Row | Structure (SMILES) | cell-surface Lgr5 expression
1 | COc1ccc(CCN(C)CCCC(C#N)(c2cc(OC)c(OC)c(OC)c2)C(C)C)cc1OC (stereo not drawn) [Gallopamil (methoxyverapamil)] | inactive: 1.27
2 | CN1CCN(c2c(F)cc3c(=O)c(C(=O)O)cn(CCF)c3c2F)CC1 [Fleroxacin] | inactive: 1.11
3 | NNc1nncc2ccccc12 [Hydralazine] | inactive: 0.924
4 | CC(=O)OCC(CCn1cnc2cnc(N)nc21)COC(C)=O [Famciclovir] | inactive: 0.923
5 | [Br-].[Br-].[Ca+2] [Calcium bromide] | inactive: 0.565
6 | CN1CCN(CCCN2c3ccccc3Sc3ccc(Cl)cc32)CC1 [Prochlorperazine dimaleate salt] | inactive: 1.01
7 | CN1CCN(CCCN2c3ccccc3Sc3ccc(Cl)cc32)CC1 [Prochlorperazine dimaleate] | inactive: 0.945
8 | CC(=O)[C@]1(O)Cc2c(O)c3c(c(O)c2[C@@H](O[C@H]2C[C@H](N)[C@H](O)[C@H](C)O2)C1)C(=O)c1ccccc1C3=O [Idarubicin] | inactive: 0.619
9 | CCN(CC)CCc1nc(-c2ccccc2)no1 [Oxolamine] | inactive: 1.17
10 | CNCC(O)c1ccc(OC(=O)C(C)(C)C)c(OC(=O)C(C)(C)C)c1 (stereo not drawn) [Dipivefrin HCl] | active: 1.42
11 | CCCCCC[C@@H](O)C/C=C\CCCCCCCC(=O)O [Potassium ricinoleate] | inactive: 1.24
12 | Cc1c(N(C)CS(=O)(=O)O)c(=O)n(-c2ccccc2)n1C [Dipyrone] | inactive: 1.18
13 | CN(C)[C@@H]1C(O)=C(C(=O)NCN2CCCC2)C(=O)[C@@]2(O)C(O)=C3C(=O)c4c(O)cccc4[C@@](C)(O)[C@H]3C[C@@H]12 [Rolitetracycline] | inactive: 0.735
14 | CC(NCCC(c1ccccc1)c1ccccc1)c1ccccc1 (stereo not drawn) [Fendiline (3,3-Diphenyl-N-1-propanamine)] | inactive: 0.941
15 | O=c1[nH]c(=O)n(C2CCCO2)cc1F (stereo not drawn) [Tegafur (Ftorafur)] | inactive: 1.14
16 | N=C(N)NCCCC[C@@H]1NC(=O)CCSSC[C@@H](C(N)=O)NC(=O)[C@@H]2CCCN2C(=O)[C@H](Cc2c[nH]c3ccccc23)NC(=O)[C@H](CC(=O)O)NC(=O)CNC1=O [Eptifibatide] | inactive: 0.905
17 | O=C(O)c1cc(-c2ccccc2)nc2ccccc12 [Cinchophen (2-phenyl 4-quinoline carboxylic acid)] | active: 1.45
18 | CC(=O)O[C@]1(C(C)=O)CC[C@H]2[C@@H]3C[C@H](C)C4=CC(=O)CC[C@]4(C)[C@H]3CC[C@@]21C [Medroxyprogesterone acetate] | inactive: 1.2
19 | C[C@H]1C[C@@H]2[C@H]([C@@H](O)C[C@@]3(C)[C@H]2CC[C@]3(O)C(=O)CO)[C@@]2(C)C=CC(=O)C=C12 [Methylprednisolone (6-alpha-Methylprednisolone)] | inactive: 1.12
20 | CCCNCC(O)COc1ccccc1C(=O)CCc1ccccc1 (stereo not drawn) [Propafenone] | inactive: 1.27
21 | COc1ccccc1OCC(O)CN1CCN(CC(=O)Nc2c(C)cccc2C)CC1 (stereo not drawn) [Ranolazine dihydrochloride] | inactive: 1.15

Row | Structure (SMILES) | cell-surface Lgr5 expression
22 | N.O=C(O)CC(O)(CC(=O)O)C(=O)O [Ammonium citrate (Ammonium hydrogencitrate)] | inactive: 1.14
23 | CCCCCCCCCCCC[N+](C)(C)Cc1ccccc1 | inactive: 0.391
24 | COc1ccc(C2CNC(=O)C2)cc1OC1CCCC1 (stereo not drawn) [Rolipram] | inactive: 1.03
25 | O=C([O-])C[NH+](CC(=O)[O-])CC(=O)[O-].O=C([O-])C[NH+](CC(=O)[O-])CC(=O)[O-].O=C([O-])C[NH+](CC(=O)[O-])CC(=O)[O-].[Na+].[Na+].[Na+].[Na+].[Na+].[Na+].[Na+].[O]=[Bi][O]C(=O)C[NH+](CC(=O)[O-])CC(=O)[O-] [Bismuth Sodium Triglycollamate (Nitrilotriacetic acid)] | inactive: 1.08
26 | Cc1ccc(C(C)C)cc1O [Carvacrol] | inactive: 1.25
27 | CCOC(=O)Oc1c(OC)cc(C(=O)O[C@@H]2C[C@@H]3CN4CCc5c([nH]c6cc(OC)ccc56)[C@H]4C[C@@H]3[C@H](C(=O)OC)[C@H]2OC)cc1OC [Syrosingopine] | inactive: 0.732
28 | CO/N=C(\C(=O)N[C@@H]1C(=O)N2C(C(=O)O)=C(COC(N)=O)CS[C@H]12)c1ccco1 [Cefuroxime] | inactive: 0.981
29 | Nc1ccc(S(=O)(=O)Nc2ccnn2-c2ccccc2)cc1 [Sulfaphenazole] | inactive: 0.81
30 | CC1Cc2ccccc2N1NC(=O)c1ccc(Cl)c(S(N)(=O)=O)c1 (stereo not drawn) [Indapamide] | inactive: 0.929
31 | CC(C)(C)[C@]1(O)CCN2C[C@H]3c4ccccc4CCc4cccc(c43)[C@@H]2C1 [Butaclamol hydrochloride (+)] | inactive: 1.08
32 | Nc1ccc2cc3ccc(N)cc3nc2c1 [Proflavine hemisulfate salt hydrate, powder] | inactive: 1.06
33 | CC(=O)N1C[C@H](O)C[C@H]1C(=O)O [Oxaceprol (trans-1-acetyl-4-hydroxy L-proline)] | inactive: 1.16
34 | Cc1cc(CC(=O)O)n(C)c1C(=O)c1ccc(Cl)cc1 [Zomepirac] | inactive: 1.08
35 | CC(=O)Nc1ncc([N+](=O)[O-])s1 [Nithiamide (2-Acetamido-5-nitrothiazole)] | inactive: 1.3
36 | CCC(C(=O)OCCN(CC)CC)c1ccccc1 (stereo not drawn) [Butetamate (Butethamate)] | inactive: 1.2
37 | O=P([O-])(O)O.[K+] [Potassium phosphate monobasic] | inactive: 1.24
38 | c1ccc(OCc2ccc(CCCN3CCOCC3)cc2)cc1 [Fomocaine] | inactive: 1.23
39 | CC(=O)OC1CC2CCC1(C)C2(C)C (stereo not drawn) [Bornyl acetate, (-)-] | inactive: 1.14
40 | O=C(O)C1=NN(c2ccc(S(=O)(=O)O)cc2)C(=O)C1N=Nc1ccc(S(=O)(=O)O)cc1 (stereo not drawn) [Tartrazine] | inactive: 1.02
41 | C[C@H]1C[C@H]2[C@@H]3CCC4=CC(=O)C=C[C@]4(C)[C@@]3(F)[C@@H](O)C[C@]2(C)[C@@]1(O)C(=O)CO | active: 1.45
42 | C=C1/C(=C\C=C2/CCC[C@]3(C)[C@@H]([C@H](C)/C=C/[C@@H](O)C4CC4)CC[C@@H]23)C[C@@H](O)C[C@@H]1O [Calcipotriene] | inactive: 0.796

Rewritten with tabs: entries from further up
Row	Structure (SMILES)	cell-surface Lgr5 expression
35	CC(=O)Nc1ncc([N+](=O)[O-])s1 [Nithiamide (2-Acetamido-5-nitrothiazole)]	inactive: 1.3
36	CCC(C(=O)OCCN(CC)CC)c1ccccc1 (stereo not drawn) [Butetamate (Butethamate)]	inactive: 1.2
37	O=P([O-])(O)O.[K+] [Potassium phosphate monobasic]	inactive: 1.24
38	c1ccc(OCc2ccc(CCCN3CCOCC3)cc2)cc1 [Fomocaine]	inactive: 1.23
39	CC(=O)OC1CC2CCC1(C)C2(C)C (stereo not drawn) [Bornyl acetate, (-)-]	inactive: 1.14

(further entries)

Row | Structure (SMILES) | cell-surface Lgr5 expression
43 | Cc1ccc(Cl)c(Nc2ccccc2C(=O)O)c1Cl [Meclofenamic acid sodium salt] | inactive: 1.02
44 | CN(C)CCOc1ccc(/C(=C(/CCCl)c2ccccc2)c2ccccc2)cc1 [Toremifene] | inactive: 0.996
45 | CCN1CCN(C(=O)N[C@@H](C(=O)N[C@@H]2C(=O)N3C(C(=O)O)=C(CSc4nnnn4C)CS[C@H]23)c2ccc(O)cc2)C(=O)C1=O [Cefoperazone sodium salt] | inactive: 0.882
46 | CC(C(=O)O)c1ccc(N2Cc3ccccc3C2=O)cc1 (stereo not drawn) [Indoprofen] | inactive: 1.24
47 | CC1=Nc2ccc(Cl)cc2S(=O)(=O)N1 [Diazoxide] | inactive: 0.976
48 | Cc1cc(/C=C/c2ccc3cc(N(C)C)ccc3[n+]2C)c(C)n1-c1ccccc1 [Pyrvinium pamoate] | inactive: 1.09
49 | O=S1(=O)OC(c2ccc(O)cc2)(c2ccc(O)cc2)c2ccccc21 [Phenolsulfonphthalein (Phenol red free acid)] | inactive: 1.06
50 | CCCCNc1ccc(C(=O)OCCOCCOCCOCCOCCOCCOCCOCCOCCOC)cc1 [Benzonatate] | inactive: 1.08
51 | O=C([O-])C(=O)[O-].O=C([O-])C(=O)[O-].O=C([O-])C(=O)[O-].[Ce+3].[Ce+3] [Cerium oxalate] | inactive: 1.08
52 | CCCc1nc(C)c2c(=O)nc(-c3cc(S(=O)(=O)N4CCN(CC)CC4)ccc3OCC)[nH]n12 [Vardenafil] | inactive: 1.08
53 | Cc1cnc(NC(=O)C2=C(O)c3ccccc3S(=O)(=O)N2C)s1 [Meloxicam] | inactive: 0.887
54 | CC1CC(OC(=O)C(O)c2ccccc2)CC(C)(C)N1C (stereo not drawn) [Eucatropine] | inactive: 1.19
55 | CCN(CC)c1ccc(C(=C2C=CC(=[N+](CC)CC)C=C2)c2ccccc2)cc1.CN(C)c1ccc(C(=C2C=CC(=[N+](C)C)C=C2)c2ccc(N(C)C)cc2)cc1.Nc1ccc2cc3ccc(N)cc3nc2c1 | inactive: 0.155
56 | COc1cc(NS(C)(=O)=O)ccc1Nc1c2ccccc2nc2ccccc12 [Amsacrine] | inactive: 0.994
57 | CCN1CCN(c2cc3c(cc2F)c(=O)c(C(=O)O)cn3C2CC2)CC1 [Enrofloxacin] | inactive: 1.29
58 | NC(=O)c1ccccc1O [Salicylamide] | inactive: 1.2
59 | N.N.O=C(O)O [Ammonium carbonate] | inactive: 0.969
60 | NC(=O)N[C@@H](CCC(=O)O)C(=O)O [Carglumic acid (N-Carbamyl-L-Glutamic Acid)] | inactive: 1.08
61 | COCCCC/C(=N\OCCN)c1ccc(C(F)(F)F)cc1 [Fluvoxamine maleate] | inactive: 0.523
62 | C[C@H](N[C@@H](CCc1ccccc1)C(=O)O)C(=O)N1CCC[C@H]1C(=O)O [Enalaprilat] | inactive: 1.08
63 | CN(C)[C@@H]1C(O)=C(C(N)=O)C(=O)[C@@]2(O)C(O)=C3C(=O)c4c(O)cccc4[C@@](C)(O)[C@H]3C[C@@H]12 [Tetracycline] | inactive: 0.625
